According to patent US20040077828A1:
These are yes or no findings as the source states them, for the method shown. Some binding calls cover weakened binding; strength is not graded here. Where a sequence is shown, tags or fusion partners need not be part of it.

Biological target: T1, human sFRP-Δ3-M/H (Δ3 derivative of sFRP-1) (human)
T1 sequence: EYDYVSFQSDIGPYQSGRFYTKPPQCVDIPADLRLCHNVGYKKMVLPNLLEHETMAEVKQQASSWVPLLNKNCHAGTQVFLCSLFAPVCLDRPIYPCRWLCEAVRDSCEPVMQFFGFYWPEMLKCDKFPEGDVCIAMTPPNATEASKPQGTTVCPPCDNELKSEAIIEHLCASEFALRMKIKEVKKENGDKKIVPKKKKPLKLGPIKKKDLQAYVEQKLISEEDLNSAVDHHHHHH
Test: ELISA with sFRP-1 deletion mutants

B1: A-C2/alkaline phosphatase fusion protein (peptide, not shown: large carriers)
chain: QGTLVDGRWLQL
binding: binds
